Sequences of proteins named here, by UniProt entry; tags and fusion partners are left off.
UniProt Q0JBA9, entry or part of it: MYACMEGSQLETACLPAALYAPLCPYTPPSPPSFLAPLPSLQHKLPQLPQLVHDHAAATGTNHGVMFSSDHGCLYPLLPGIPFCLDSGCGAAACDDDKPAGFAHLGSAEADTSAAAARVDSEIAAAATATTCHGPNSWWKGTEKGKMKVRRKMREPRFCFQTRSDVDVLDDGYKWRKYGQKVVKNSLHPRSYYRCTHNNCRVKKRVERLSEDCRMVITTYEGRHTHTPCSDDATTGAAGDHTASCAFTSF

Some of the results follow.
These sequences were tested against OsWRKY34 (Oryza sativa, UniProt Q0JBA9 1-250) (assay: protein-binding microarray (RPBM); PBS, 2% BSA, 51.3 ng/ul salmon testes DNA, 50 uM zinc acetate, 200 nM TF, 25 C, 1 h; high values mean tight binding). Conditions: protein: recombinant; tags: N-terminal polyhistidine and DsRed monomer fusion (pET32a); label: CyDye5-dUTP incorporated in the synthesized complementary strand; 3' TTTTT single-stranded linker to array surface; dsDNA, one strand shown.
In short: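 In PBS with 2% BSA, salmon testes DNA and 50 µM zinc acetate, 200 nM protein was incubated on a custom Agilent array at 25 °C for 1 h and then washed off. The array had been made double-stranded by primer extension with Cy5-dUTP and blocked with 2% BSA. The proteins were transcription factors fused N-terminally to polyhistidine and DsRed, expressed in E. coli BL21-CodonPlus and purified on Ni–NTA. The binding signal is per-feature fluorescence intensity (arbitrary units) from an Axon 4000B scanner.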
In the case of “AACGATTCGCCATCATTTTAAATGTTTTTATCGTCTATTTCGGAGTCACCTAGTGCAG”, the binding signal is reported as 10900 fluorescence intensity (a.u.). “CCATTTATGTCGTCGCGCCCCGCCCCGCCCGCGCGCTGAGCGGAGTCACCTAGTGCAG” was tested, and the binding signal was 10200 fluorescence intensity (a.u.). With “TATAATCGTGTGTTTCGTTTTCCGTGTCAGGAGGCAAGGTCGGAGTCACCTAGTGCAG” the binding signal was 8200 fluorescence intensity (a.u.). For “GAGCCACCACCGACAACATTAATCTGGCTAAGCTCAATGACGGAGTCACCTAGTGCAG”, the binding signal was 10300 fluorescence intensity (a.u.). In the case of “GTGCATGTTCGTCTATCGTGTAACTTTTTTGTTTTTCAATCGGAGTCACCTAGTGCAG”, the binding signal is reported as 8800 fluorescence intensity (a.u.). With “ACTGTTATTATTTTTTCAATGTTTTTCATGTCTGTTTGTCCGGAGTCACCTAGTGCAG” the binding signal was 10900 fluorescence intensity (a.u.). With “TCATTTGATGTAATAGTCCCCGTTGTTTATCTTTTCTAATCGGAGTCACCTAGTGCAG” the binding signal was 9720 fluorescence intensity (a.u.). In the case of “CGTCCTCGGCACCAAACTCCTGCTACCTCGATGTCTTGATCGGAGTCACCTAGTGCAG”, the binding signal is reported as 12100 fluorescence intensity (a.u.). For “GCTCGGCCCAGCCCACTACAAGCCCAATTCAATTGCATTCCGGAGTCACCTAGTGCAG”, the binding signal was 8510 fluorescence intensity (a.u.). “AAACCATTCCAGAAGTTACTTGAAGTTTGACATTTCATCCCGGAGTCACCTAGTGCAG” was tested, and the binding signal was 8140 fluorescence intensity (a.u.). For “TTGCTGACTTTCAATTCATTTTTACGATTTTACATCTATACGGAGTCACCTAGTGCAG”, the binding signal was 9390 fluorescence intensity (a.u.). In the case of “GGACATGACACCCTGCTTGCTACTGCTATACACATGTTCTCGGAGTCACCTAGTGCAG”, the binding signal is reported as 9110 fluorescence intensity (a.u.). “CATGACAAATGTCCTCATCCATACGCACACTATGATTTTACGGAGTCACCTAGTGCAG” was tested, and the binding signal was 9330 fluorescence intensity (a.u.). With “TTATTATTTTTGTGTGTGAAACTGACATGTGGGTCCCACTCGGAGTCACCTAGTGCAG” the binding signal was 10000 fluorescence intensity (a.u.). In the case of “TCCGAGGTGCACAGTGTCCTTCCTGTTGGTGTGATAGTTCCGGAGTCACCTAGTGCAG”, the binding signal is reported as 8210 fluorescence intensity (a.u.). For “TGCCTGGTCATATTTCCATAGCGACATACTGTACACATTTCGGAGTCACCTAGTGCAG”, the binding signal was 10500 fluorescence intensity (a.u.). “CGTTGTTCTGCTTCTCCATGGCCTCCACCTGCATCTGCAACGGAGTCACCTAGTGCAG” was tested, and the binding signal was 9920 fluorescence intensity (a.u.). With “CCGTGTGGTGGTGGTCTGGCTGATTTTTTTTTGTTTTATTCGGAGTCACCTAGTGCAG” the binding signal was 10500 fluorescence intensity (a.u.). In the case of “CTGCGTTGACCGGCCGAAGAGAAAAATTGCTGGTCTATGACGGAGTCACCTAGTGCAG”, the binding signal is reported as 14400 fluorescence intensity (a.u.). “TACCCTCGAGATTTTGCTGTGTTCCCTCCCATGTCCTTACCGGAGTCACCTAGTGCAG” was tested, and the binding signal was 9610 fluorescence intensity (a.u.). “CACCATTGATTTTTCTTCTTGTTTTCTCCGACTCTGAGAACGGAGTCACCTAGTGCAG” was tested, and the binding signal was 8100 fluorescence intensity (a.u.). “CTCCTCCGTCTCGCGCCCGCCGCCGCCGCCACCGCCACCGCGGAGTCACCTAGTGCAG” was tested, and the binding signal was 11400 fluorescence intensity (a.u.). For “CCAAAGGGGCAAGCCTATACACTATTTACCTGAACTTTGCCGGAGTCACCTAGTGCAG”, the binding signal was 8390 fluorescence intensity (a.u.). In the case of “CGTCACAATTGTCCCGTATTATCTCATACTTCATCAGTGACGGAGTCACCTAGTGCAG”, the binding signal is reported as 9840 fluorescence intensity (a.u.). In the case of “TATATATATATATATATATTGTTGAACGGTTTGTGCTCTGCGGAGTCACCTAGTGCAG”, the binding signal is reported as 10900 fluorescence intensity (a.u.). In the case of “GACCACAATTAATTACCACTGCTAAGCTCCATCCTCCATGCGGAGTCACCTAGTGCAG”, the binding signal is reported as 8440 fluorescence intensity (a.u.). In the case of “GTGCTAAAAAGTCAACGGTGTCAAATATTTAGAAATGAAGCGGAGTCACCTAGTGCAG”, the binding signal is reported as 21200 fluorescence intensity (a.u.). “ACTTCCATCGTGATCTTTTTACCATTATTTGGAGCATTTCCGGAGTCACCTAGTGCAG” was tested, and the binding signal was 11000 fluorescence intensity (a.u.). With “GGCATATGACCGGTACTACGACAACCATCACCTCTCGCCGCGGAGTCACCTAGTGCAG” the binding signal was 8160 fluorescence intensity (a.u.). With “TCATGGGCGGGTTGAGCAATGTTTCTTGTGATTAGTCTCACGGAGTCACCTAGTGCAG” the binding signal was 16300 fluorescence intensity (a.u.). “TAATGGATTTGTTTGGTCATCTACATGGGAGGGTGGCTCACGGAGTCACCTAGTGCAG” was tested, and the binding signal was 8200 fluorescence intensity (a.u.). With “GCTGACTGACTGACTGACTCCTGACCGCCTTTAACTTTTACGGAGTCACCTAGTGCAG” the binding signal was 14700 fluorescence intensity (a.u.). With “CTTCGTCGCTTCCGCGTGTCGTCACACTCCACTCCGTCCACGGAGTCACCTAGTGCAG” the binding signal was 8490 fluorescence intensity (a.u.). “TTTCATCAATTGCCTCTTGTATCAGCTACTATGCAATATACGGAGTCACCTAGTGCAG” was tested, and the binding signal was 8850 fluorescence intensity (a.u.). In the case of “TGGTTTTGATTGATCGATATTGCTTTTGTTTACCATTGCCCGGAGTCACCTAGTGCAG”, the binding signal is reported as 9180 fluorescence intensity (a.u.). For “CTATTCACTCGCAGAATCGGCGTACGCCGCTGTGGCTCCGCGGAGTCACCTAGTGCAG”, the binding signal was 8820 fluorescence intensity (a.u.). “CGCGGGTGGTCTGGTCTCTCTCTCGTATCGTATCGTATCACGGAGTCACCTAGTGCAG” was tested, and the binding signal was 16700 fluorescence intensity (a.u.). With “TAACTACGACGCTGCTCCAACTTCAACATATGCTAATTGCCGGAGTCACCTAGTGCAG” the binding signal was 8740 fluorescence intensity (a.u.). For “TGTGCTGGTACTACTCCTTACTTTCCCGTCCTTAGCTCAGCGGAGTCACCTAGTGCAG”, the binding signal was 9010 fluorescence intensity (a.u.). For “CGACAGAGATGTGTTTCATGTGTTTCAAGTGGCCTGTCAACGGAGTCACCTAGTGCAG”, the binding signal was 8420 fluorescence intensity (a.u.). In the case of “AAGGCTGAGATTATTTCCTTCCTGATACATACTGGTCCTACGGAGTCACCTAGTGCAG”, the binding signal is reported as 9090 fluorescence intensity (a.u.). With “TTATTGTGCCACGTTATCTAGAACCGTCTTCAATATTGTCCGGAGTCACCTAGTGCAG” the binding signal was 8430 fluorescence intensity (a.u.).

Source: article PMC7819943, “Rice protein-binding microarrays: a tool to detect cis-acting elements near promoter regions in rice”
